From the supplement of paper PMC10849652
The list shows a part of the results.

By UniProt entry, the sequences of proteins in these tests, tags left out. Where a name states a change or a piece, a line headed by the entry shows the natural chain unless it says otherwise.
UniProt Q9P2R7: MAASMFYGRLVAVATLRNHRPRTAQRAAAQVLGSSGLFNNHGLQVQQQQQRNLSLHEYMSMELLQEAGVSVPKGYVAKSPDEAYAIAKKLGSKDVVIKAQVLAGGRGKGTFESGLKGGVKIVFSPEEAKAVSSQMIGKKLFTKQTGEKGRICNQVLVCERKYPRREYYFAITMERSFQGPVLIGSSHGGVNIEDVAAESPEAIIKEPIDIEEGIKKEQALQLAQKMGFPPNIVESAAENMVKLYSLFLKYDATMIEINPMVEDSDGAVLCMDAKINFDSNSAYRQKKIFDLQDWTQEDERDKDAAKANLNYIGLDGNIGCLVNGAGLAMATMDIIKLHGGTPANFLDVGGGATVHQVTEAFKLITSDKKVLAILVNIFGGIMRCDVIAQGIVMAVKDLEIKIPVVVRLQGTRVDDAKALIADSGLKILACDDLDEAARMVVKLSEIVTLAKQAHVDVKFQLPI
UniProt Q92750: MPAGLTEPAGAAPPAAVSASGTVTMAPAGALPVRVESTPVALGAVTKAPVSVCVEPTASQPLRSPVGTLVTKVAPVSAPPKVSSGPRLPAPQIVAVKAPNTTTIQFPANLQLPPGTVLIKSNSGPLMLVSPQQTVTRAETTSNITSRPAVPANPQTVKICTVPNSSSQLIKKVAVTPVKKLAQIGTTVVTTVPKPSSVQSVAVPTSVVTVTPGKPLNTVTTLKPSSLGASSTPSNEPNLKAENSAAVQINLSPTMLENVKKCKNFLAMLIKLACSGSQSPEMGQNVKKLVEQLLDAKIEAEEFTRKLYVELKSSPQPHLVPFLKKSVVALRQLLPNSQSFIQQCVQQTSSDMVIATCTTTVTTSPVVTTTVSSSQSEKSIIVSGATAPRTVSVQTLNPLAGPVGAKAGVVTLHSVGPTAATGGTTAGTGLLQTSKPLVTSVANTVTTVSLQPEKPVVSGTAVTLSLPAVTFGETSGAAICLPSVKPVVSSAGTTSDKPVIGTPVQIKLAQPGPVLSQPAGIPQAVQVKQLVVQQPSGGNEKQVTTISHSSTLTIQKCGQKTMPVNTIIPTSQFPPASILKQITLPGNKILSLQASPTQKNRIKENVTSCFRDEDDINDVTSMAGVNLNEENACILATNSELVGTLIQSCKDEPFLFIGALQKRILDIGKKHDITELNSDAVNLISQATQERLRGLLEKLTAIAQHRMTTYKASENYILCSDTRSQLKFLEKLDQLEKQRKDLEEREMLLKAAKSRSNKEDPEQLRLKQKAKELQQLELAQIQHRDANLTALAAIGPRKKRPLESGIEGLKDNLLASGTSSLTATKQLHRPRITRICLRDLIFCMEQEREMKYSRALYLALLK
UniProt P16949: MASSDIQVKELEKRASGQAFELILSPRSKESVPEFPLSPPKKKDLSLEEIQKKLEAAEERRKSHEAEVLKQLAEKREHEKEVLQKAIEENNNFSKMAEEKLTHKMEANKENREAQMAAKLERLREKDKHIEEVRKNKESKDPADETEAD
UniProt Q93045: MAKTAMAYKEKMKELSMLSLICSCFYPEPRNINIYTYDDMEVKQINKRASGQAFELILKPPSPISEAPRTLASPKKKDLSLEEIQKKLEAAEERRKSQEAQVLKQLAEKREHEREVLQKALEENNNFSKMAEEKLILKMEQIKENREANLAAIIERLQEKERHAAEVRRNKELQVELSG
UniProt P56962: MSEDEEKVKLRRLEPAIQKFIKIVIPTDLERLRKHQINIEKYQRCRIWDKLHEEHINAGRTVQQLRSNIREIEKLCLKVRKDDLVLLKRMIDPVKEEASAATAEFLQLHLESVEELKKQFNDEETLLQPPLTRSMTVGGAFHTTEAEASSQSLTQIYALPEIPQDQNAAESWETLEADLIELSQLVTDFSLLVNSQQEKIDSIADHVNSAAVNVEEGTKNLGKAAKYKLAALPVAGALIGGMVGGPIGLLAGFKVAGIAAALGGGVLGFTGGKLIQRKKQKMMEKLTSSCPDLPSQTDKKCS
UniProt Q12962, whole entry, looked up: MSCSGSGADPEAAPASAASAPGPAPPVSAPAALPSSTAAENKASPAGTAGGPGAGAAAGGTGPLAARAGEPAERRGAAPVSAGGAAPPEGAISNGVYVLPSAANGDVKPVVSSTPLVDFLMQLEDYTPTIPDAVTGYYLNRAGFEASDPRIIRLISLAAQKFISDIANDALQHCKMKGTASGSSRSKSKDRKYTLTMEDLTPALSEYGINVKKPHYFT
UniProt Q96A49: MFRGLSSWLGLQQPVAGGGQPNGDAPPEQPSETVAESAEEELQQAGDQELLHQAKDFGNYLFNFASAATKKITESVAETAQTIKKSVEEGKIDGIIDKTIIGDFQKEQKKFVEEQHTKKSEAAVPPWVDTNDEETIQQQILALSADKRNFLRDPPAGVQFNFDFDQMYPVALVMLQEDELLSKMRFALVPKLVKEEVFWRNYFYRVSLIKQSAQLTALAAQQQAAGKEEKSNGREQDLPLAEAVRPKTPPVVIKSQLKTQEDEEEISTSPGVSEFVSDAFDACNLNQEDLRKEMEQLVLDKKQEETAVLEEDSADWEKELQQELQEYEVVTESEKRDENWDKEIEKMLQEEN
UniProt Q9NRP7: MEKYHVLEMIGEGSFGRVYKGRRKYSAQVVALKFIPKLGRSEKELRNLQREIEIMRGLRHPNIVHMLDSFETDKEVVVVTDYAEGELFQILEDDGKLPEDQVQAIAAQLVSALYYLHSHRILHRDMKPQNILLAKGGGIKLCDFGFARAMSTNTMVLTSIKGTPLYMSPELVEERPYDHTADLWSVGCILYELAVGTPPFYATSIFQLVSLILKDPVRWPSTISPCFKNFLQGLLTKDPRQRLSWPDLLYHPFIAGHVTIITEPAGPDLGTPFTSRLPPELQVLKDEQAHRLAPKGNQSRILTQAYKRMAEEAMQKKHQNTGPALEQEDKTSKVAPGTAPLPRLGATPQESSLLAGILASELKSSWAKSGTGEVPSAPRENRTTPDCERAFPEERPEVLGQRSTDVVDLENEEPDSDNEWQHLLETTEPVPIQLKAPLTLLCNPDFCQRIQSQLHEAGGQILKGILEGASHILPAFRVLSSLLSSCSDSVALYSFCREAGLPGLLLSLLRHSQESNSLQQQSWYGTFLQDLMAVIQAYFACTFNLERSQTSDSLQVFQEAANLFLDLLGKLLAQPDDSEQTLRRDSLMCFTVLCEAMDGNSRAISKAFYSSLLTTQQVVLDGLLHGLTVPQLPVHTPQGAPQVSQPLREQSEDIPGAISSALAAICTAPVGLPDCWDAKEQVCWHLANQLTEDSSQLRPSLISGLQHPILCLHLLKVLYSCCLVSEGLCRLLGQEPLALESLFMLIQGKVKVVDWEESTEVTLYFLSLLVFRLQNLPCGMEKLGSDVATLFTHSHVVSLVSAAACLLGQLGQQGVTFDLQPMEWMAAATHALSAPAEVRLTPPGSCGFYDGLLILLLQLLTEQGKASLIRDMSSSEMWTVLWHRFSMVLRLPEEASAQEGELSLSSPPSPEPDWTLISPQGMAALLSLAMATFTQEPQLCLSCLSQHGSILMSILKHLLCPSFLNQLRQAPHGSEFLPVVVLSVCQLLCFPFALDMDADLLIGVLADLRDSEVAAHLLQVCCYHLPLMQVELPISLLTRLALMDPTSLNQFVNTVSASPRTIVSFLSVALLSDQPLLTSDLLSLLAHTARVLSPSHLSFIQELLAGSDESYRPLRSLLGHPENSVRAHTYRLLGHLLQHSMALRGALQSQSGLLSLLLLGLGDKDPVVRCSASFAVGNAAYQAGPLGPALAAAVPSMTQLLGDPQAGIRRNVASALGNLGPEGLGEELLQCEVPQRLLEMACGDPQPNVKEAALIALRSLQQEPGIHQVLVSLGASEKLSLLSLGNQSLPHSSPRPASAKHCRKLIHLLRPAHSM
UniProt O95926: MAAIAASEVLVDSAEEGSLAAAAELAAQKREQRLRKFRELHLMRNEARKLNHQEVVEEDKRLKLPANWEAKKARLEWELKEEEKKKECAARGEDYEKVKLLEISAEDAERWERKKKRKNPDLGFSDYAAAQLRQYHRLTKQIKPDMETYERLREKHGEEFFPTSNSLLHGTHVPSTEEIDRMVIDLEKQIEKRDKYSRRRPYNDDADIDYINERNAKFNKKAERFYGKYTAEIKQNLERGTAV
UniProt Q8NEM7: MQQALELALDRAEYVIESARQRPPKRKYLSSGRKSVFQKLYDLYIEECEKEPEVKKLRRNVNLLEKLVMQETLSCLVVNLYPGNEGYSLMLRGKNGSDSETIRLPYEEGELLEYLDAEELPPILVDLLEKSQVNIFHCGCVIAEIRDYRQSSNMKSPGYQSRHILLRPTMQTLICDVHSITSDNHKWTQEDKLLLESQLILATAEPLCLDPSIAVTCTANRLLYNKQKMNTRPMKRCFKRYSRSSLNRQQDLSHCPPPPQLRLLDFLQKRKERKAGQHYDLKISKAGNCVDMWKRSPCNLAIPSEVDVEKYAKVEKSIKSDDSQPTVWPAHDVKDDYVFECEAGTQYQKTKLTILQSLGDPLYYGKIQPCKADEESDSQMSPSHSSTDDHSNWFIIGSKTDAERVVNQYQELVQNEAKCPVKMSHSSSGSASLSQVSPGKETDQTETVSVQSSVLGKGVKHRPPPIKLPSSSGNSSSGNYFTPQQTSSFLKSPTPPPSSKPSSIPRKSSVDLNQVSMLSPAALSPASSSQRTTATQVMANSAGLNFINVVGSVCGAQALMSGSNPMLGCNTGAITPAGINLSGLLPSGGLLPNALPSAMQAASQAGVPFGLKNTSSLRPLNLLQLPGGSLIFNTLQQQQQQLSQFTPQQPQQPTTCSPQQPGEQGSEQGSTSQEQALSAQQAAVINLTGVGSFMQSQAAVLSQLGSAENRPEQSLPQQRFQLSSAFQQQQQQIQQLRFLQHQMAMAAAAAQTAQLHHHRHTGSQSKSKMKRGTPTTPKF
UniProt Q5VSL9: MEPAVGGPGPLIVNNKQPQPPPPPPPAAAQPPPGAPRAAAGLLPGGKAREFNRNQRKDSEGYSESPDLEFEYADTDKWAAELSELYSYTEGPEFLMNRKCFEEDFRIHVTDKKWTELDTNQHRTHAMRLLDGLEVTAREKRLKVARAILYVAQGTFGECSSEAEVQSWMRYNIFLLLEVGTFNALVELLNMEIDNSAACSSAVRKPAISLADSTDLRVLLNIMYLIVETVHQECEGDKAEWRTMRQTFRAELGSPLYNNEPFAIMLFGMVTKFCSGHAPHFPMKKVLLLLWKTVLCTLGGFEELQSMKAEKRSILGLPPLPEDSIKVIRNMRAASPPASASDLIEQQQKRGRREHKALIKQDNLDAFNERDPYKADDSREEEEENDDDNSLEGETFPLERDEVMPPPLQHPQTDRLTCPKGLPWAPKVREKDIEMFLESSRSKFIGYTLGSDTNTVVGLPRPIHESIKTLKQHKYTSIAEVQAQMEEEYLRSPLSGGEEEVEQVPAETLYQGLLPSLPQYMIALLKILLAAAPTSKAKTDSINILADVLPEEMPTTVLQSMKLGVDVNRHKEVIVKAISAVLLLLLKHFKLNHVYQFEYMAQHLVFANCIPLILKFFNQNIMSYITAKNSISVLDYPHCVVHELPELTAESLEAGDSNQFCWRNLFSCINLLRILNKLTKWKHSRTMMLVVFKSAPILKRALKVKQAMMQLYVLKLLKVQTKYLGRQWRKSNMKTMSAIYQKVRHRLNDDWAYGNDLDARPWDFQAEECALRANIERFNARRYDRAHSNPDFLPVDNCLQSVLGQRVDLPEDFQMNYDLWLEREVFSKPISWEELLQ
UniProt Q9ULQ0: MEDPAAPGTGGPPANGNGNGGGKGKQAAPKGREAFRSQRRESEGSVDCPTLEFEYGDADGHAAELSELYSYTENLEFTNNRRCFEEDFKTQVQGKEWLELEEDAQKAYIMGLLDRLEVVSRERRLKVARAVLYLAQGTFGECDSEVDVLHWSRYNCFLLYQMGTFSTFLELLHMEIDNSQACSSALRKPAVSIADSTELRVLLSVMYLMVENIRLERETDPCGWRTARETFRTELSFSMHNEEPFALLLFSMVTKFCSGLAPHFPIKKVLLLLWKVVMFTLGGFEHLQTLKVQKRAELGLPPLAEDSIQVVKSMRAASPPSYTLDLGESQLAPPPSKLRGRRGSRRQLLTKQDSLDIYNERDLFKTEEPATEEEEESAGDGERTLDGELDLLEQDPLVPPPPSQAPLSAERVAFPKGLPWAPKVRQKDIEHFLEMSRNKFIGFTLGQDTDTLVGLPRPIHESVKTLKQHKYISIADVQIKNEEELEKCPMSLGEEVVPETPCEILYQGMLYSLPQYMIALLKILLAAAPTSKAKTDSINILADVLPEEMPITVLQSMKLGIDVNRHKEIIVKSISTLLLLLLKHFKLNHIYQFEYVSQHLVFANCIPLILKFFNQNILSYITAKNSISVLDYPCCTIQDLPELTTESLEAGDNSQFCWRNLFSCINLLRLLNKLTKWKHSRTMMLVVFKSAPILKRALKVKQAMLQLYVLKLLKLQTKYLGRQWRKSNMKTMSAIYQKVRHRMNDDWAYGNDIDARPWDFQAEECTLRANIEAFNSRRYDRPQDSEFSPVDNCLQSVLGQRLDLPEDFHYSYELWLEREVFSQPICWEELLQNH

What was measured:
Assay in all cases: log2 fold change, soluble protein after heating vs DMSO (PISA); higher = thermal stabilisation; K562 lysate, 10 uM; active = over 0.2 and 3.5 SD of the protein, either way, in both replicates (recomputed)
nilotinib = compound: Cc1cn(-c2cc(NC(=O)c3ccc(C)c(Nc4nccc(-c5cccnc5)n4)c3)cc(C(F)(F)F)c2)cn1 [nilotinib]
Outline: (§1)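 Dounce homogenisation of K562 pellets in PBS pH 7.4 with 1 mM MgCl2 produced a crude extract, used at 1 mg/mL protein. Exposure to 10 μM compound lasted 30 min, and aliquots were then heated for 3 min across 48°C-58°C, pooled and brought to 0.5% NP-40 at 4°C. The supernatant after 21,000xg for 90 min was quantified by TMTpro 16plex LC-MS/MS with channel sums equalised. Duplicate values are given as log-two fold change in thermal stability relative to solvent controls.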

[1] = compound: Cc1nc(Nc2n[nH]c3c2CN(C(=O)N[C@H](CN(C)C)c2ccccc2)C3(C)C)c2sccc2n1
Outline: as §1

dasatinib = compound: Cc1nc(Nc2ncc(C(=O)Nc3c(C)cccc3Cl)s2)cc(N2CCN(CCO)CC2)n1 [dasatinib]
Outline: as §1

[2] = compound: Cc1ncc(-c2ccnc(Nc3ccc(S(C)(=O)=O)cc3)n2)n1C(C)C
Outline: as §1

[3] = compound: Cn1cc(-c2ccc3c(c2)CCN3C(=O)Cc2cccc(C(F)(F)F)c2)c2c(N)ncnc21
Outline: as §1

quisinostat = compound: Cn1cc(CNCC2CCN(c3ncc(C(=O)NO)cn3)CC2)c2ccccc21 [quisinostat]
Outline: as §1

tipifarnib = compound: Cn1cncc1[C@@](N)(c1ccc(Cl)cc1)c1ccc2c(c1)c(-c1cccc(Cl)c1)cc(=O)n2C [tipifarnib]
Outline: as §1

[4] = compound: NC(=O)Nc1cc(-c2cccc(F)c2)sc1C(=O)N[C@H]1CCCNC1
Outline: as §1

[5] = compound: NC(=O)c1cnc(N[C@@H]2CCCC[C@@H]2N)nc1Nc1cccc(-n2nccn2)c1
Outline: as §1

[6] = compound: NC1(c2ccc(-c3nc4ccn5c(=O)[nH]nc5c4cc3-c3ccccc3)cc2)CCC1
Outline: as §1

[7] = compound: NCC(=O)Nc1ccc(-n2nc(C(F)(F)F)cc2-c2ccc3c(ccc4ccccc43)c2)cc1
Outline: as §1

vorinostat = compound: O=C(CCCCCCC(=O)Nc1ccccc1)NO [vorinostat]
Outline: as §1

silmitasertib = compound: O=C(O)c1ccc2c(c1)nc(Nc1cccc(Cl)c1)c1ccncc12 [silmitasertib]
Outline: as §1

[8] = compound: O=C1NC(=O)C(c2cnc3ccccn23)=C1c1cn2c3c(cc(F)cc13)CN(C(=O)N1CCCCC1)CC2
Outline: as §1

entospletinib = compound: c1cn2cc(-c3ccc4cn[nH]c4c3)nc(Nc3ccc(N4CCOCC4)cc3)c2n1 [entospletinib]
Outline: as §1

Measured: log2 fold change

SUCLA2 (UniProt Q9P2R7)
inactive: nilotinib 0.013 | [1] 0.016 | dasatinib -0.014 | [2] 0.01 | [3] 0.006 | quisinostat -0.038 | tipifarnib 0.006 | [4] 0.027 | [5] 0.052 | [6] 0.011 | [7] 0.029 | vorinostat -0.151 | silmitasertib 0.028 | [8] 0.008 | entospletinib 0.029

TAF4B (UniProt Q92750)
inactive: nilotinib -0.083 | [1] -0.008 | dasatinib 0.03 | [2] -0.017 | [3] 0.075 | quisinostat 0.064 | tipifarnib 0.053 | [4] 0.022 | [5] 0.042 | [6] -0.025 | [7] -0.001 | vorinostat 0.169 | silmitasertib -0.038 | [8] 0.031 | entospletinib 0.057

STRN3 (UniProt Q13033)
inactive: nilotinib 0.01 | [1] 0.033 | dasatinib 0.004 | [2] -0.037 | [3] 0.009 | quisinostat 0.061 | tipifarnib -0.009 | [4] 0.012 | [5] -0.02 | [6] 0.004 | [7] -0.068 | vorinostat 0.041 | silmitasertib 0.013 | [8] -0.016 | entospletinib -0.002

STMN1 (UniProt P16949)
inactive: nilotinib 0.005 | [1] -0.026 | dasatinib 0.017 | [2] 0.012 | [3] -0.021 | quisinostat -0.018 | tipifarnib -0.002 | [4] 0.016 | [5] -0.017 | [6] -0.041 | [7] 0.007 | vorinostat 0.097 | silmitasertib -0.02 | [8] 0.027 | entospletinib 0.022

SYTL4 (UniProt Q96C24)
inactive: nilotinib 0.141 | [1] 0.001 | dasatinib 0.04 | [2] -0.102 | [3] 0.056 | quisinostat -0.053 | tipifarnib 0.464 | [4] -0.054 | [5] 0.119 | [6] -0.054 | [7] -0.119 | vorinostat 0.002 | silmitasertib 0.008 | [8] -0.008 | entospletinib 0.01

STMN2 isoform 2 (UniProt Q93045)
inactive: nilotinib -0.073 | [1] 0.014 | dasatinib 0 | [2] -0.011 | [3] -0.079 | quisinostat 0.027 | tipifarnib 0.118 | [4] -0.022 | [5] -0.051 | [6] -0.032 | [7] 0.005 | vorinostat 0.139 | silmitasertib 0.009 | [8] 0.015 | entospletinib 0.042

STX17 (UniProt P56962)
inactive: nilotinib -0.065 | [1] 0.006 | dasatinib -0.076 | [2] 0.017 | [3] -0.051 | quisinostat 0.012 | tipifarnib 0.04 | [4] -0.007 | [5] 0.057 | [6] -0.044 | [7] 0.131 | vorinostat 0.13 | silmitasertib 0.011 | [8] -0.063 | entospletinib 0.021

TAF10 (UniProt Q12962)
inactive: nilotinib -0.01 | [1] 0.037 | dasatinib 0.026 | [2] -0.016 | [3] 0.001 | quisinostat -0.004 | tipifarnib -0.006 | [4] 0.012 | [5] -0.03 | [6] -0.092 | [7] 0.014 | vorinostat 0.026 | silmitasertib -0.027 | [8] 0.026 | entospletinib -0.008

SYAP1 (UniProt Q96A49)
inactive: nilotinib 0.089 | [1] 0.013 | dasatinib 0.059 | [2] 0.012 | [3] -0.07 | quisinostat 0.045 | tipifarnib -0.085 | [4] -0.086 | [5] -0.039 | [6] 0.052 | [7] -0.036 | vorinostat 0.234 | silmitasertib -0.07 | [8] -0.05 | entospletinib 0.022

SYNJ2BP-COX16, A0A087WYV9
inactive: nilotinib 0.071 | [1] 0.037 | dasatinib 0.09 | [2] 0.058 | [3] 0.017 | quisinostat 0.059 | tipifarnib 0.015 | [4] -0.004 | [5] 0.235 | [6] -0.055 | [7] 0.092 | vorinostat 0.124 | silmitasertib 0.041 | [8] -0.035 | entospletinib -0.034

STK36 (UniProt Q9NRP7)
inactive: nilotinib 0.081 | [1] -0.179 | dasatinib -0.142 | [2] -0.02 | [3] -0.113 | tipifarnib -0.059 | [4] 0.059 | [5] 0.117 | [6] -0.265 | [7] 0.283 | vorinostat 0.143 | silmitasertib -0.032 | [8] 0.101 | entospletinib -0.031
active: quisinostat -1.31

STMN3 (UniProt Q9NZ72)
inactive: nilotinib -0.068 | [1] 0.218 | dasatinib 0.035 | [2] -0.041 | [3] -0.032 | quisinostat 0.006 | tipifarnib 0.176 | [4] -0.022 | [5] -0.006 | [6] 0.052 | [7] -0.028 | vorinostat 0.065 | silmitasertib -0.033 | [8] -0.004 | entospletinib 0.07

Retrieved one by one from the entries so far (2):
SYNJ2BP-COX16, A0A087WYV9
inactive: nilotinib 0.071 | [1] 0.037 | dasatinib 0.09 | [2] 0.058 | [3] 0.017 | quisinostat 0.059 | tipifarnib 0.015 | [4] -0.004 | [5] 0.235 | [6] -0.055 | [7] 0.092 | vorinostat 0.124 | silmitasertib 0.041 | [8] -0.035 | entospletinib -0.034

STMN3 (UniProt Q9NZ72)
inactive: nilotinib -0.068 | [1] 0.218 | dasatinib 0.035 | [2] -0.041 | [3] -0.032 | quisinostat 0.006 | tipifarnib 0.176 | [4] -0.022 | [5] -0.006 | [6] 0.052 | [7] -0.028 | vorinostat 0.065 | silmitasertib -0.033 | [8] -0.004 | entospletinib 0.07

Next part

SYF2 (UniProt O95926)
inactive: nilotinib -0.023 | [1] 0 | dasatinib -0.036 | [2] 0.005 | [3] 0.003 | quisinostat -0.008 | tipifarnib 0.046 | [4] -0.016 | [5] 0.04 | [6] -0.106 | [7] -0.047 | vorinostat 0.092 | silmitasertib -0.059 | [8] -0.014 | entospletinib -0.059

TAB1 (UniProt Q15750)
inactive: nilotinib 0 | [1] 0.016 | dasatinib -0.058 | [2] 0.031 | [3] 0.031 | quisinostat -0.033 | tipifarnib 0.047 | [4] 0.017 | [5] 0.01 | [6] 0.016 | [7] 0.006 | vorinostat -0.071 | silmitasertib -0.024 | [8] -0.028 | entospletinib -0.007

SYP (UniProt P08247)
inactive: nilotinib 0.104 | [1] -0.084 | dasatinib 0.011 | [2] -0.132 | [3] -0.004 | quisinostat 0.056 | tipifarnib -0.084 | [4] 0.071 | [5] 0.017 | [6] -0.066 | [7] 0.024 | vorinostat 0.028 | silmitasertib 0.089 | [8] 0.116 | entospletinib 0.077

SUPT20H isoform 3 (UniProt Q8NEM7)
inactive: nilotinib -0.058 | [1] 0.062 | dasatinib 0.049 | [2] 0.155 | [3] -0.058 | quisinostat -0.395 | tipifarnib -0.214 | [4] 0.275 | [5] 0.127 | [6] -0.063 | [7] -0.084 | vorinostat -0.225 | silmitasertib 0.063 | [8] 0.105 | entospletinib -0.12

SUGP1 (UniProt Q8IWZ8)
inactive: nilotinib -0.078 | [1] 0.048 | dasatinib 0.015 | [2] 0.014 | [3] 0 | quisinostat -0.028 | tipifarnib -0.056 | [4] -0.024 | [5] -0.009 | [6] 0.011 | [7] -0.001 | vorinostat -0.014 | silmitasertib -0.02 | [8] -0.024 | entospletinib 0.002

STRIP1 (UniProt Q5VSL9)
inactive: nilotinib -0.014 | [1] 0.035 | dasatinib -0.025 | [2] -0.01 | [3] 0.03 | quisinostat 0.006 | tipifarnib -0.015 | [4] 0.007 | [5] 0.03 | [6] 0.012 | [7] 0.007 | vorinostat -0.164 | silmitasertib 0.023 | [8] -0.013 | entospletinib -0.01

STRIP2 (UniProt Q9ULQ0)
inactive: nilotinib 0.007 | [1] 0.09 | dasatinib -0.002 | [2] -0.046 | [3] 0.02 | quisinostat -0.071 | tipifarnib -0.023 | [4] 0.011 | [5] -0.009 | [6] -0.028 | [7] 0.02 | vorinostat -0.185 | silmitasertib 0.02 | [8] 0.002 | entospletinib -0.037

TAB3 (UniProt Q8N5C8)
inactive: nilotinib -0.073 | [1] -0.019 | dasatinib -0.079 | [2] 0.086 | [3] 0.006 | quisinostat -0.093 | tipifarnib -0.059 | [4] 0.028 | [5] 0.055 | [6] 0.021 | vorinostat -0.306 | silmitasertib -0.035 | [8] 0.163 | entospletinib -0.251

SYK (UniProt P43405)
inactive: nilotinib 0.02 | [1] -0.031 | dasatinib -0.067 | [2] 0 | [3] 0.01 | quisinostat -0.077 | tipifarnib -0.002 | [4] -0.095 | [6] -0.064 | [7] 0.135 | vorinostat -0.138 | silmitasertib 0.053 | [8] 0.016 | entospletinib -0.079
